# These are yes or no findings as the source states them, for the method shown. Binding seen in cells or lysates may run through a third protein. These calls come from enrichment with a bait or labelling near it, and not all partners need be listed.
# By UniProt entry, the sequences of proteins in these tests, tags left out.
# UniProt P48434: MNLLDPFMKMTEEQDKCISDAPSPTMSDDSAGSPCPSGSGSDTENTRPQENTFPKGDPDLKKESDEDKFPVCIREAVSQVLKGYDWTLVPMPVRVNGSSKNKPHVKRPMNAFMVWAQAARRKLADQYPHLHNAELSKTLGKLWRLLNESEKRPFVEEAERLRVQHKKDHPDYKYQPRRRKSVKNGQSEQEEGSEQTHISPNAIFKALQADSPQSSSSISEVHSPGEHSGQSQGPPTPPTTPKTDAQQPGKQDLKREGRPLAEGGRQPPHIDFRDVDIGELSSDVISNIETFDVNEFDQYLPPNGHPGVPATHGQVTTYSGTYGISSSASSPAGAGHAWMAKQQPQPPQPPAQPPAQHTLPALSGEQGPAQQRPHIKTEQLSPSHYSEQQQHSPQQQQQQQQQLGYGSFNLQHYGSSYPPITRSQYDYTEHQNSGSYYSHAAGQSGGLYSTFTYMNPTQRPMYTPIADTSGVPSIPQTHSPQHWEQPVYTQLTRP
# UniProt A0A1D5P7L2: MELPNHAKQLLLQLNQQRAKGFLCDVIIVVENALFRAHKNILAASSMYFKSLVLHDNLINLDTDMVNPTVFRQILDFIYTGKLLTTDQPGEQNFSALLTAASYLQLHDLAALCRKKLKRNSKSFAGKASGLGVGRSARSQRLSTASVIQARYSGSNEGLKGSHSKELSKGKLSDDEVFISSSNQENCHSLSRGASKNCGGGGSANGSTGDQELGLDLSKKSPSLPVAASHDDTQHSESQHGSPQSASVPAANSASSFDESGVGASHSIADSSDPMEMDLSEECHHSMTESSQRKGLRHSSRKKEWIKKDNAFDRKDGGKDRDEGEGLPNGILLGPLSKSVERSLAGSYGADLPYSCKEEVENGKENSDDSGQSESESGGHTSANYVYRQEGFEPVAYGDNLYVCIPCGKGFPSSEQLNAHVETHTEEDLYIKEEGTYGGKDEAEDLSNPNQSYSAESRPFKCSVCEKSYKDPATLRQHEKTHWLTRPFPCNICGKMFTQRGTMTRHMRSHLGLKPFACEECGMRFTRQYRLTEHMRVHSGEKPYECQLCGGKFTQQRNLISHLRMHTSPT
# UniProt A0A8V0Y4A6: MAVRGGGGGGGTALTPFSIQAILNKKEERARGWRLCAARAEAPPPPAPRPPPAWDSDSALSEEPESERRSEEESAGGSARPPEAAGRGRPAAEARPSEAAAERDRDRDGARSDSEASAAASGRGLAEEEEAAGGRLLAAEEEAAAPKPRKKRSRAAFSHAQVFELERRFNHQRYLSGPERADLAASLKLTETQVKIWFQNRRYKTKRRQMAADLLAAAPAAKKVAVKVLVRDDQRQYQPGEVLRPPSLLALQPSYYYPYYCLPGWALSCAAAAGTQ
# B1: HIC1 (protein, UniProt Q90850 1-676)
# chain: APGARPAASRERGHKSREERCGERGAAAGRRARGAMLEAMEVPSHSRQLLLQLNTQRTKGFLCDVIIVVQNALFRAHKNILAASSAYLKSLVVHDNLLNLDHEMVSPGIFRLILDFIYTGRLGECEPGGEQSLGAVLAAASYLQIPGLVALCKKKLKRSGKYCHLRGGYAPYKLGRGLRATTPVIQACYSGTPRPVDLQPVEPAAPLNTQCGELYASASQGTPLHPHGLCPPERHCSPPCGLDLSKKSPTGPSAQLLPTDRLLPAEPREPSLPPRHDSPPVSGGLLAGHPAAYKDSPPGGEPGGHPHATDPFRSTPPCAEPPLPRGDGRELMYRWMKHEPLGPYLDEGEAEKELEREEKAESPPAAPQPRYPSVESNDLEPDNSTSEETGSSEGPSPGDALDRYCNHLGYEPESLGDNLYVCIPCGKGFPSSEQLNAHVEAHNEEELYHKAAAEQAVPFLDKGGAGLGDILRPYRCSSCDKSYKDPATLRQHEKTHWLTRPYPCTICGKKFTQRGTMTRHMRSHLGLKPFACDACGMRFTRQYRLTEHMRIHSGEKPYECQVCGGKFAQQRNLISHMKMHAAGPDGKAKLDFPDSVYAMARLTADQLGLKQEKAAELLSHTSHFLSDPKAMESLYPLAKFTAEHLGLSQDKAAEVLAQAPHLHADAARTIERYSPP
# Tests used:
# [1] = target: T1, FOXP1 (chicken (endogenous in embryonic tissue)) (UniProt Q58NQ4); assay: affinity purification with mass spectrometry; RIME: HH29 chicken neural crest-, somite- and limb-derived tissue cross-linked with 2 mM DSG (40 min) and 1% formaldehyde (13 min), nuclei lysed and sonicated, incubated overnight at 4 °C with anti-SOX9 or anti-FOXP1 and protein A/G Dynabeads, washed with RIPA and AMBIC, LC-MS/MS; quadruplicates; differential abundance across embryonic origins
# T1 sequence: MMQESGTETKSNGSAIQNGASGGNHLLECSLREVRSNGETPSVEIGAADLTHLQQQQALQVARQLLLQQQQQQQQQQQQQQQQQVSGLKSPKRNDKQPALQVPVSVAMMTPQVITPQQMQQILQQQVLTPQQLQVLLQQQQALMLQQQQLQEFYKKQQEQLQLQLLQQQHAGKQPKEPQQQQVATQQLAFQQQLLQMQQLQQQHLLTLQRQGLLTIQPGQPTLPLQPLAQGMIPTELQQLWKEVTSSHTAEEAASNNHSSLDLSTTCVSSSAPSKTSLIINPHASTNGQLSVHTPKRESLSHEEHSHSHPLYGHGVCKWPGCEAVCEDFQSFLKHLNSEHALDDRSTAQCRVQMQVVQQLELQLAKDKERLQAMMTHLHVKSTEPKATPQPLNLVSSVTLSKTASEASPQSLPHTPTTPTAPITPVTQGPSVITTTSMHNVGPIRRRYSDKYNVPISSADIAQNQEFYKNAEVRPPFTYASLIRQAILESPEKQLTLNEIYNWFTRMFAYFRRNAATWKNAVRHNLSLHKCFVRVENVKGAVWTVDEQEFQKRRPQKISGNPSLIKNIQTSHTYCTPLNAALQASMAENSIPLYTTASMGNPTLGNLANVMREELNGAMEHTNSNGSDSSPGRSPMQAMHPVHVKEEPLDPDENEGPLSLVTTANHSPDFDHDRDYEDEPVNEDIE
# [2] = target: SOX9 (chicken (endogenous in embryonic tissue)) (UniProt P48434); assay: as above
Molecule,binding [1],binding [2]
HIC2 (from UniProt A0A1D5P7L2 1-570),binds,
NKX3-2 (from UniProt A0A8V0Y4A6 1-276),,binds
B1,binds,

# From paper PMC11880379
